Measurements published in publication PMC11699347, “Heme regulates protein interactions and phosphorylation of BACH2 intrinsically disordered region in humoral response” (iScience, 2024).

Chains of the proteins cited; added tags and fusions are not shown. Residues count along the entry.
UniProt P97303, residues 331-520: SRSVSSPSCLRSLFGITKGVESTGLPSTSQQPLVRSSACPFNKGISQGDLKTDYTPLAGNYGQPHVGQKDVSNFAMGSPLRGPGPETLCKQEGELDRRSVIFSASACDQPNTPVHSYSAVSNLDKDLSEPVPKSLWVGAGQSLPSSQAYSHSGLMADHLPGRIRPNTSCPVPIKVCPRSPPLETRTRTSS

These binders were tested against FLAG-HA-BACH2-IDR (mouse) (UniProt P97303) (assay: affinity purification with mass spectrometry; ReCLIP: in-cell cross-linking (DSP, DTME) of BAL17 cells stably expressing FLAG-HA-BACH2-IDR, RIPA lysate, FLAG-M2 agarose, FLAG peptide elution, cross-links reversed with DTT, LC-MS/MS; compared with mock-infected cells).

Row | binding | Binder
1 | binds | Cleavage stimulation factor subunit 1 (protein, UniProt Q99LC2 1-431) MYRTKVGLKDRQQLYKLIISQLLYDGYISIANGLINEIKPQSVCAPSEQLLHLIKLGMENDDTAVQYAIGRSDTVAPGTGIDLEFDADVQTMSPEASEYETCYVTSHKGPCRVATYSRDGQLIATGSADASIKILDTERMLAKSAMPIEVMMNETAQQNMENHPVIRTLYDHVDEVTCLAFHPTEQILASGSRDYTLKLFDYSKPSAKRAFKYIQEAEMLRSISFHPSGDFILVGTQHPTLRLYDINTFQCFVSCNPQDQHTDAICSVNYNPSANMYVTGSKDGCIKLWDGVSNRCITTFEKAHDGAEVCSAIFSKNSKYILSSGKDSVAKLWEISTGRTLVRYTGAGLSGRQVHRTQAVFNHTEDYILLPDERTISLCCWDSRTAERRNLLSLGHNNIVRCIVHSPTNPGFMTCSDDFRARFWYRRSTTD
2 | binds | Serine/threonine-protein phosphatase 4 regulatory subunit 1 (protein, UniProt Q8K2V1 1-951) MADLSLLQEDLPEDADGLDVDDYSSESDVIIIPSALDFVSQDEMLTPLGRLDKYAASENVFNRQMVARSLLDTLREVCDDERDCIAVLERISRLADDSEPTVRAELMEQVPHIALFCQENRPSIPYAFSKYLLPIVVRYLADQNNQVRKTSQAALLALLEQELIERFDVETKVCPVLIDLTAPDSNDDVKTEAVAIMCKMAPMVGKDITERLILPRFCEMCCDCRMFHVRKVCAANFGDICSVVGQQATEEMLLPRFFQLCSDNVWGVRKACAECFMAVSCATCQEIRRTKLSALFINLISDPSRWVRQAAFQSLGPFISTFANPSSSGQCFKDESKSSEDSSAEDKDRMRDNDVVEEEHRRPEDAPSDLSAPHSSARLESLEGCAAKTPGHSAGDVPAPVDSSLLCTLSSESPQEAASNDENGRKPDTNSKSASRPDAGTSSPEATPLDQDMFNSFHFWRTPLPKIDLDKELQQDPEERLSPERTGDVPAAPLPGPPNITMATRKELEEMIENLEPHMDDPDVKAQVDVLSAALRASSLDAHEETGGVEQRSELQDEVCVSELPDCNISHDTCVPLISAAEENAEATPDYVHGGADVSPGDGFSPDEDRRPKVQDVVPQALLDQYLSMTDPSRAQTVDTEIAKHCAYSLPGVALTLGRQNWHCLRETYETLASDMQWKVRRTLAFSIHELAVILGDQLTAADLVPIFNGFLKDLDEVRIGVLKHLHDFLKLLHIDKRREYLYQLQEFLVTDNSRNWRFRAELAEQLILLLELYSPRDVYDYLRPIALNLCADKVSSVRWISYKLVSEMVKKLHTATPPTFGVDLINELVENFGRCPKWSGRQAFVFVCQTVIEDDCLPMDQFAVHLMPHLLTLANDRVPNVRVLLAKTLRQTLLEKEYFLASASCHQEAVEQTIMALQMDRDSDVKYFASIHPSSTKLSEDAMSTASSTY
3 | binds | Constitutive coactivator of PPAR-gamma-like protein 1 (protein, UniProt Q6A0A9 1-1112) MGVQGFQDYIEKHCPSAVVPVELQKLARGSLVGGGRQRPPQTPLRLLVDADNCLHRLYGGFYTDWVSGGQWNHMLGYLAALAKACFGGNIELFVFFNGALEKARLHEWVKRQGNERQTAQQIVSHVQNKGTPPPKVWFLPPVCMAHCIRLALIRFHVKVAQSIEDHHQEVIGFCRENGFHGLVAYDSDYALCNIPYYFSAHALKLSRNGKSLTTSQYLMHEVAKQLDLNPNRFPIFAALLGNHILPDEDLASFHWSLLGPEHPLASLKVRAHQLVLPPCDVVIKAVADYVRNIHDTSDLDAIAKDVFQHSQSRTDDKVIRFKRAVGYYSATSKPMPFHPPHYLARPNPFGMPGMVPPYVPPQMLNIPQTSLQAKPAVPQVPSPGGTPGQAPYPYSLSEPALTLDTSGKNLTEQNSYSNIPHEGKHTPLYERSSPINLAQSGSPNHVDSAYFPGSSTSSSSDNDEGGGGATNHISGNKIGWEKTGSHAEPLARGDPGDQVKVEGSSTASSGSQLAEGKGSHMGTVQPIPCLLSMPTRNHMDITTPPLPPVAPEVLRVAEHRHKKGLMYPYIFHILTKGEIKIAVSIEDEANKDLPPAALLYRPVRQYVYGVLFSLAESRKKTERLAFRKNRLPPEFSPLIIKEWAAYKGKSPQTPELVEALAFREWTCPNLKRLWLGKAVEDKNRRMRAFLACMRSDTPAMLNPANVPTHLMVLCCVLRYMVQWPGARILRRQELDAFLAQALSPKLYEPDQLQELKIDNLDPRGIQLSALFMSGVDMALFANDACGQPIPWEHCCPWMYFDGKLFQSKLLKASREKTPLIDLCDGQAEQAAKVEKMRQSILEGLSFSRQNHPLPFPPPPALPFYPASVYPRHFGPVPPSQGRGRGFAGVCGFGGHYGETVATGPYRAFRVTAASGHCGAFSGSDSSRTSKSQGGVQPIPSQGGKLEIAGTVVGHWAGSRRGRGGRGPFPLQVVSVGGPARGRPRGVISTPVIRTFGRGGRYYGRGYKSQGAIQGRPPYAASAEEVAKELKSKSGESKSSAVSLAENGVMAEEKPVPQLNGSTGDPRVPSHSESALNNDSKPCNTNPHLNALSTDSACRREAALEAAVLNKEE

No constants are given. Whether binding was seen depends on the method and setting. In cells and extracts the contact can be indirect. A yes stands for co-enrichment or nearness to the bait. Other partners may have been found.
